Data published in doi:10.1101/2021.09.17.460803.
Results are given in words; binding and its absence hold for the method and conditions named. In cells and extracts the contact can be indirect. Some entries that bind do so weakly or less than the wild type. Tags and fused reporters may be left off the sequences shown.

Target: T1, FLAG-tagged CASP (human) (UniProt Q13948)
T1 sequence: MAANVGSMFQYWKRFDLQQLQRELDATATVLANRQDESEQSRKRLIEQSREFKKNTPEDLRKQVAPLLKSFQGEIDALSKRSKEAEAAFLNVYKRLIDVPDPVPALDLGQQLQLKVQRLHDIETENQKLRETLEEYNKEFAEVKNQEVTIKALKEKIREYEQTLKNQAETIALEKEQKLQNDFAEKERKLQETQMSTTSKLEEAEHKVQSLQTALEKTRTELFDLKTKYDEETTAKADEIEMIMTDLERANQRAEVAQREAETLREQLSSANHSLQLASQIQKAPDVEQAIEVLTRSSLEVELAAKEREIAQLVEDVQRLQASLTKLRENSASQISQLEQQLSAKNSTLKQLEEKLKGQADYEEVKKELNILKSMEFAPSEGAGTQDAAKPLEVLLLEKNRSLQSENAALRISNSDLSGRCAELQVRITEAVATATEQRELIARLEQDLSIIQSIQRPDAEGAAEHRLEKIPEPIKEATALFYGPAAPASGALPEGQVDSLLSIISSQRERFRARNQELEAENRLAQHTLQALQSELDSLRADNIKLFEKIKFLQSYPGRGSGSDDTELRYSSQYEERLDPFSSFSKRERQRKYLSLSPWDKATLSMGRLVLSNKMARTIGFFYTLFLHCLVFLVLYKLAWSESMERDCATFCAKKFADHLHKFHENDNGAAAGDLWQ
Assay: co-IP

- binding: binds
B1: mRFP-tagged CUX2 (protein, UniProt O14529 1-1486)
chain: MAANVGSMFQYWKRFDLRRLQKELNSVASELSARQEESEHSHKHLIELRREFKKNVPEEIREMVAPVLKSFQAEVVALSKRSQEAEAAFLSVYKQLIEAPDPVPVFEAARSLDDRLQPPSFDPSGQPRRDLHTSWKRNPELLSPKEQREGTSPAGPTLTEGSRLPGIPGKALLTETLLQRNEAEKQKGLQEVQITLAARLGEAEEKIKVLHSALKATQAELLELRRKYDEEAASKADEVGLIMTNLEKANQRAEAAQREVESLREQLASVNSSIRLACCSPQGPSGDKVNFTLCSGPRLEAALASKDREILRLLKDVQHLQSSLQELEEASANQIADLERQLTAKSEAIEKLEEKLQAQSDYEEIKTELSILKAMKLASSTCSLPQGMAKPEDSLLIAKEAFFPTQKFLLEKPSLLASPEEDPSEDDSIKDSLGTEQSYPSPQQLPPPPGPEDPLSPSPGQPLLGPSLGPDGTRTFSLSPFPSLASGERLMMPPAAFKGEAGGLLVFPPAFYGAKPPTAPATPAPGPEPLGGPEPADGGGGGAAGPGAEEEQLDTAEIAFQVKEQLLKHNIGQRVFGHYVLGLSQGSVSEILARPKPWRKLTVKGKEPFIKMKQFLSDEQNVLALRTIQVRQRGSITPRIRTPETGSDDAIKSILEQAKKEIESQKGGEPKTSVAPLSIANGTTPASTSEDAIKSILEQARREMQAQQQALLEMEVAPRGRSVPPSPPERPSLATASQNGAPALVKQEEGSGGPAQAPLPVLSPAAFVQSIIRKVKSEIGDAGYFDHHWASDRGLLSRPYASVSPSLSSSSSSGYSGQPNGRAWPRGDEAPVPPEDEAAAGAEDEPPRTGELKAEGATAEAGARLPYYPAYVPRTLKPTVPPLTPEQYELYMYREVDTLELTRQVKEKLAKNGICQRIFGEKVLGLSQGSVSDMLSRPKPWSKLTQKGREPFIRMQLWLSDQLGQAVGQQPGASQASPTEPRSSPSPPPSPTEPEKSSQEPLSLSLESSKENQQPEGRSSSSLSGKMYSGSQAPGGIQEIVAMSPELDTYSITKRVKEVLTDNNLGQRLFGESILGLTQGSVSDLLSRPKPWHKLSLKGREPFVRMQLWLNDPHNVEKLRDMKKLEKKAYLKRRYGLISTGSDSESPATRSECPSPCLQPQDLSLLQIKKPRVVLAPEEKEALRKAYQLEPYPSQQTIELLSFQLNLKTNTVINWFHNYRSRMRREMLVEGTQDEPDLDPSGGPGILPPGHSHPDPTPQSPDSETEDQKPTVKELELQEGPEENSTPLTTQDKAQVRIKQEQMEEDAEEEAGSQPQDSGELDKGQGPPKEEHPDPPGNDGLPKVAPGPLLPGGSTPDCPSLHPQQESEAGERLHPDPLSFKSASESSRCSLEVSLNSPSAASSPGLMMSVSPVPSSSAPISPSPPGAPPAKVPSASPTADMAGALHPSAKVNPNLQRRHEKMANLNNIIYRVERAANREEALEWEF
